Measured values as given in publication PMC9892010.
These are yes or no findings as the source states them, for the method shown. For some assays here: In cells and extracts the contact can be indirect. Some results given as binding are weak or reduced against the parent protein; the word gives no strength. For some assays here: Tags and fused reporters may be left off the sequences shown. One block for each molecule: values may come before it.

Protein sequences, listed by entry. Tags and fused reporters are not part of them. Lines headed by an entry give the natural chain unless they say otherwise; changes in a name come on top.
UniProt P50085: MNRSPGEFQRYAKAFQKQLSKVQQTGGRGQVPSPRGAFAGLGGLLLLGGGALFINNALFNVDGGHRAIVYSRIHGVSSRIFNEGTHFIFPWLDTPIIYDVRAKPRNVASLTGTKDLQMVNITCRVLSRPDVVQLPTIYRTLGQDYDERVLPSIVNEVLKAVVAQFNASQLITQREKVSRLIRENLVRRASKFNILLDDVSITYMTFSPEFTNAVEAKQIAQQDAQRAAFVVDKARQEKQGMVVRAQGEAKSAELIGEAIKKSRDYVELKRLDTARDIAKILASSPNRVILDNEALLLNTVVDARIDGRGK
UniProt P39925: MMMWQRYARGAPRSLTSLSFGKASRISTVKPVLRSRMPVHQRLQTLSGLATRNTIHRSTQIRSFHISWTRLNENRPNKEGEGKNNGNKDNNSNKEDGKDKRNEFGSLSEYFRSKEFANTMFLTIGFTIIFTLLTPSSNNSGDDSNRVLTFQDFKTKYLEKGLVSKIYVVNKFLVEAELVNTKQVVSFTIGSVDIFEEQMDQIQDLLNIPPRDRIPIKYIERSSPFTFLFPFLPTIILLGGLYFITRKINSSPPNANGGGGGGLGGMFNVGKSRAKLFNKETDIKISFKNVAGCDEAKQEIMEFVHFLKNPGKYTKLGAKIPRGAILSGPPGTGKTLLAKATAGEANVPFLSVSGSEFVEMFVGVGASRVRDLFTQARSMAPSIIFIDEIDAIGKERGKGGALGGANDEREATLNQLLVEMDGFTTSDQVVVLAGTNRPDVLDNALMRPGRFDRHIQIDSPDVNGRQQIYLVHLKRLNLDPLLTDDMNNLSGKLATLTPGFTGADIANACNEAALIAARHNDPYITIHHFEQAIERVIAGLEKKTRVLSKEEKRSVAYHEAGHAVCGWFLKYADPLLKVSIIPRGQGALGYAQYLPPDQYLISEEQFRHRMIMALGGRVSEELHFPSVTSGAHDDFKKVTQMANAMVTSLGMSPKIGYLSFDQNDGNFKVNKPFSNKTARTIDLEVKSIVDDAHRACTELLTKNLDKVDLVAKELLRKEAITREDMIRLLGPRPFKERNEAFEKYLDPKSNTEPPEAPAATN
UniProt P40341: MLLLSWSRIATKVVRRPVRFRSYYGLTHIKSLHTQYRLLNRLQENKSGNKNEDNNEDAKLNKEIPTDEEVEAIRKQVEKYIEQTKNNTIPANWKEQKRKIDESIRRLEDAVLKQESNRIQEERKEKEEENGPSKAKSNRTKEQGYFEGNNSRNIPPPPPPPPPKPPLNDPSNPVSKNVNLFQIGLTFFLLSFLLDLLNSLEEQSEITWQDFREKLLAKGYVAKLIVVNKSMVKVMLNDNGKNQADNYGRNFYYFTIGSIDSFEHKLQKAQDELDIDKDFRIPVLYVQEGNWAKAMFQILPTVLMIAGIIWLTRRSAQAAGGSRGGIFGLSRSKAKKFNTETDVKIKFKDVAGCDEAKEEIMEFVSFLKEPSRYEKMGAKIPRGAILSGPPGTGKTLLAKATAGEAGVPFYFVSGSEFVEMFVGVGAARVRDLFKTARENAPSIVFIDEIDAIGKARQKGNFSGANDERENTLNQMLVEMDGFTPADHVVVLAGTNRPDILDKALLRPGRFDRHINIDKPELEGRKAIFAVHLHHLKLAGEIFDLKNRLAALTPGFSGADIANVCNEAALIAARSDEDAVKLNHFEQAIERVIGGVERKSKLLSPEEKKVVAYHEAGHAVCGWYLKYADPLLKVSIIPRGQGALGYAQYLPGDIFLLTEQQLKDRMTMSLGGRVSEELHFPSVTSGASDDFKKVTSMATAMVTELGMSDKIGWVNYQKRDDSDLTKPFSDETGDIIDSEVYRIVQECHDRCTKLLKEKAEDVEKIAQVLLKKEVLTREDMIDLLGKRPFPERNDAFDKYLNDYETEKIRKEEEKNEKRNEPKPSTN
UniProt P25694: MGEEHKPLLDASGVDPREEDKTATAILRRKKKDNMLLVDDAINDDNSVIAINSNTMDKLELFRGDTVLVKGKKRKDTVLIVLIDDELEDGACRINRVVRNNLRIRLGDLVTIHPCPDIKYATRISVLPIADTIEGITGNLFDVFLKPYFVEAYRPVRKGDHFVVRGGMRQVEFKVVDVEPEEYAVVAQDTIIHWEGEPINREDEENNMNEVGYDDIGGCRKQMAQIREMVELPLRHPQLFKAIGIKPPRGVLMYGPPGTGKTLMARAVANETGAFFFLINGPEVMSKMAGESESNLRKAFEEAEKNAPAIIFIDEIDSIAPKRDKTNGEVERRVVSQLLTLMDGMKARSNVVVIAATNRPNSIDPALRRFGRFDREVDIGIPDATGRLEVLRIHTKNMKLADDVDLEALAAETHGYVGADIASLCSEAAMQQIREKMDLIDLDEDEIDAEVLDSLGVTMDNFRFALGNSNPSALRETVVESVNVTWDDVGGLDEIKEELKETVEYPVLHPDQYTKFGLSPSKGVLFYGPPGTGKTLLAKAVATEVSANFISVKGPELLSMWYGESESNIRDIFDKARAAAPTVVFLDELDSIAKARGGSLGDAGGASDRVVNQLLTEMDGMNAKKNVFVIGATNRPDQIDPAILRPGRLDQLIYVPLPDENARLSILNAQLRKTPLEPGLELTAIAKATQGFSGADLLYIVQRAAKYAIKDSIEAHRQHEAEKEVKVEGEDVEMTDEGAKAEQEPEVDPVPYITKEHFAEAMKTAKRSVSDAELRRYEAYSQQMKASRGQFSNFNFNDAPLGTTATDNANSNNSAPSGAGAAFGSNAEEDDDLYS
UniProt P39940: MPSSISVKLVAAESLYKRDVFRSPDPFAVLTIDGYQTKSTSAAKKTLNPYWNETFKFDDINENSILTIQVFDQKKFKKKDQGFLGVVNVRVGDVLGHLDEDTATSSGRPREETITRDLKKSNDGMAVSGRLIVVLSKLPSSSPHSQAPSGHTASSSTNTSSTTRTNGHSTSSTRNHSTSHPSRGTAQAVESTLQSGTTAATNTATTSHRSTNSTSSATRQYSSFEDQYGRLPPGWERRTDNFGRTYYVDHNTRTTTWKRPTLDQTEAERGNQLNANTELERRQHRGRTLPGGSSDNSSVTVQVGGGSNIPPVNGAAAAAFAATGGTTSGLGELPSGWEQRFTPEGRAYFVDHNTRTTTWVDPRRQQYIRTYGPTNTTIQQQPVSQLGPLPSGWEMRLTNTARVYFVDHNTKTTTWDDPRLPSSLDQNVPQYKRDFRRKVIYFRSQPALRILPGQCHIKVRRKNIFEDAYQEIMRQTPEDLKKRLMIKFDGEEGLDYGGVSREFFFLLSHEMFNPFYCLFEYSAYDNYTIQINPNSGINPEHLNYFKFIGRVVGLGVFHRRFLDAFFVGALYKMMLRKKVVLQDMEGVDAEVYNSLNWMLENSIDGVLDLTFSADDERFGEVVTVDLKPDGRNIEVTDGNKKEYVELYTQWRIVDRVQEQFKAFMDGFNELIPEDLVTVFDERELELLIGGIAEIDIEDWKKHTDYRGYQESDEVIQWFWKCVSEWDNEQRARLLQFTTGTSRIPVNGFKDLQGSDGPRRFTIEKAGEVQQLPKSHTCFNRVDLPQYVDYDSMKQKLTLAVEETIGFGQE

What was measured:
Tom40–HA (S. cerevisiae) = molecular target: T1, Tom40–HA (S. cerevisiae) (UniProt P23644); experiment: co-IP; cell extracts of Tom40–HA strains (also in pth2∆, ubx2∆ and tom70∆ backgrounds) lysed with 1% digitonin, anti-HA affinity matrix, SDS–PAGE and immunodetection; the interaction of Rsp5 is called impaired in tom70∆
T1 sequence: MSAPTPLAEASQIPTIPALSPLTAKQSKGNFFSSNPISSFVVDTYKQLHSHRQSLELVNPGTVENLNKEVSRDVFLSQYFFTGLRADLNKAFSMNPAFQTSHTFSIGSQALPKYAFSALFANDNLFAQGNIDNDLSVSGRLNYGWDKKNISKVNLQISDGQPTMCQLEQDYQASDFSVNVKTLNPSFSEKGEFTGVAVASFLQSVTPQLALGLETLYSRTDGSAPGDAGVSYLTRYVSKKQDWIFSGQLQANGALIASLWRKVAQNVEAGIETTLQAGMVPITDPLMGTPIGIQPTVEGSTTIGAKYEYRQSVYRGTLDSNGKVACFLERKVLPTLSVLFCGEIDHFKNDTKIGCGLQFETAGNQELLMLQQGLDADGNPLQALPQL

Cox4His (S. cerevisiae) = molecular target: T2, Cox4His (S. cerevisiae) (UniProt P04037); experiment: pull-down; isolated mitochondria with a His-tagged protein (Tom20–His, Pth2His, Cox4His) lysed with 1% digitonin, 10 mM imidazole, Ni-NTA agarose, elution with 250 mM imidazole, SDS–PAGE and immunodetection
T2 sequence: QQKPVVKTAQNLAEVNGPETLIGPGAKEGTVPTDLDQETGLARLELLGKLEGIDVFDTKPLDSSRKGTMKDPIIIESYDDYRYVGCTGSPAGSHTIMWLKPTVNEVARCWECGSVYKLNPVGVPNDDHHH

[1] = molecular target: T3, Phb1–protein A (S. cerevisiae) (UniProt P40961); experiment: pull-down; Phb1–protein A mitochondria lysed with 1% digitonin, IgG Sepharose, elution by TEV protease, immunodetection
T3 sequence: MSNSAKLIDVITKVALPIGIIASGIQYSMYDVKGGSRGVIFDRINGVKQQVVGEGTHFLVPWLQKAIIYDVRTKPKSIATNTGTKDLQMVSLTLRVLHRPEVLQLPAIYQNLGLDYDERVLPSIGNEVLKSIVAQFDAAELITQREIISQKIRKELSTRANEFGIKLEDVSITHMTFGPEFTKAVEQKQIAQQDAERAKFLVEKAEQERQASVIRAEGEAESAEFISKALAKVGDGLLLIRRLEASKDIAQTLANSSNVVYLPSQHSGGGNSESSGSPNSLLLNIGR

[2] = molecular target: prohibitin/m-AAA supercomplex (S. cerevisiae (endogenous in yeast)) (UniProt P40961+P50085+P39925+P40341); experiment: native gel or EMSA; complexome profiling (csBN–MS): yeast mitochondria lysed with 1% digitonin (protein:digitonin 1:8), blue native gradient gel 2–13%, cryo-sliced into 245 slices, quantitative MS; co-migration of abundance–mass profiles
[3] = molecular target: T4, Sam50 (S. cerevisiae (endogenous in yeast)) (UniProt P53969); experiment: as above
T4 sequence: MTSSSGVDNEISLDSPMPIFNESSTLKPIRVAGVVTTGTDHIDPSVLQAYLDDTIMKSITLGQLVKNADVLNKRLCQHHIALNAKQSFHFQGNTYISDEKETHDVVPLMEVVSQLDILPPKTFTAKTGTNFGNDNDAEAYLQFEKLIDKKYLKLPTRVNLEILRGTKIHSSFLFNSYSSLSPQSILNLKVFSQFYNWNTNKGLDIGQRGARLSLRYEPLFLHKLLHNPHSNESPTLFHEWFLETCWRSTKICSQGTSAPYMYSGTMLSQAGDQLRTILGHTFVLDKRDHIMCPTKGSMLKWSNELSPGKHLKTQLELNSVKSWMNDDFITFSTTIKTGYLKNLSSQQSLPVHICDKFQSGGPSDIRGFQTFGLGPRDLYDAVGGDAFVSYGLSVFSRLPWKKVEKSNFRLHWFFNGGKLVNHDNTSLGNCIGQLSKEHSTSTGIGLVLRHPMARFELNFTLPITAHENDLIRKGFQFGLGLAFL

[4] = molecular target: T5, Om45 (S. cerevisiae (endogenous in yeast)) (UniProt P16547); experiment: as above
T5 sequence: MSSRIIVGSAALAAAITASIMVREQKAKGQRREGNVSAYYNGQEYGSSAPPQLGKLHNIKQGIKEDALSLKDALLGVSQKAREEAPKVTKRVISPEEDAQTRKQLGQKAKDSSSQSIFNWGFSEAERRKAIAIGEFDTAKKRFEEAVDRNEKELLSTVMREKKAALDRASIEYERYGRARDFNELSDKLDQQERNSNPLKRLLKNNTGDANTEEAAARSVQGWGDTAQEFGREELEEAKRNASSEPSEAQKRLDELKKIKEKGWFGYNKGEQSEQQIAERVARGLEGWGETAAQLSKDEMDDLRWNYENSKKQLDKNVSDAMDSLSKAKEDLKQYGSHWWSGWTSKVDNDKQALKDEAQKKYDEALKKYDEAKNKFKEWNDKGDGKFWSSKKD

Ubx2–HA (S. cerevisiae) = molecular target: T6, Ubx2–HA (S. cerevisiae) (UniProt Q04228); experiment: co-IP; isolated Ubx2–HA mitochondria lysed with 1% digitonin, anti-HA affinity matrix, SDS–PAGE and immunodetection
T6 sequence: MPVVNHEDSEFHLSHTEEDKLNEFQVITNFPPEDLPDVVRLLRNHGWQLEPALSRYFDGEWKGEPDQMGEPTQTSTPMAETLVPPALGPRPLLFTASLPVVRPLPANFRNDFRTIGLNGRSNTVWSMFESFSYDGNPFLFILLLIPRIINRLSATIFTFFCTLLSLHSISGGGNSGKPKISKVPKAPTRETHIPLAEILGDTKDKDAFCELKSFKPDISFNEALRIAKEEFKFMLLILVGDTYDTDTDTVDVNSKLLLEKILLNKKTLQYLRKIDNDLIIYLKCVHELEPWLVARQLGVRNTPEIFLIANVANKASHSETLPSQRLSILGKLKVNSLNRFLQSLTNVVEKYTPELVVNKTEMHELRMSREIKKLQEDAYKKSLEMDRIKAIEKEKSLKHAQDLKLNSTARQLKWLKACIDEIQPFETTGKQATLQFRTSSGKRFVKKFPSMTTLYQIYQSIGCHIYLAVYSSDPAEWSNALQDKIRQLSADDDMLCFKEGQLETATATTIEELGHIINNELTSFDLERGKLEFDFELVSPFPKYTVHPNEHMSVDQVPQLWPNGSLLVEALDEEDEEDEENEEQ

Molecule: AAA-ATPase Cdc48 (from UniProt P25694 1-835) (enzyme)
binding (Tom40–HA (S. cerevisiae)): binds

Molecule: HECT-type E3 ubiquitin ligase Rsp5 (from UniProt P39940 1-809) (enzyme)
binding (Tom40–HA (S. cerevisiae)): binds

B2: Cox2 (protein, UniProt P00410 16-251)
chain: DVPTPYACYFQDSATPNQEGILELHDNIMFYLLVILGLVSWMLYTIVMTYSKNPIAYKYIKHGQTIEVIWTIFPAVILLIIAFPSFILLYLCDEVISPAMTIKAIGYQWYWKYEYSDFINDSGETVEFESYVIPDELLEEGQLRLLDTDTSMVVPVDTHIRFVVTAADVIHDFAIPSLGIKVDATPGRLNQVSALIQREGVFYGACSELCGTGHANMPIKIEAVSLPKFLEWLNEQ
binding (Cox4His (S. cerevisiae)): binds

B3: J protein Mdj2 (protein, UniProt P42834 1-146)
chain: MVLPIIIGLGVTMVALSVKSGLNAWTVYKTLSPLTIAKLNNIRIENPTAGYRDALKFKSSLIDEELKNRLNQYQGGFAPRMTEPEALLILDISAREINHLDEKLLKKKHRKAMVRNHPDRGGSPYMAAKINEAKEVLERSVLLRKR
binding [1]: binds
binding [2]: binds

Next, values leading:

binding (Tom40–HA (S. cerevisiae)): binds
B1: Ubx2 (protein, UniProt Q04228 1-584)
chain: MPVVNHEDSEFHLSHTEEDKLNEFQVITNFPPEDLPDVVRLLRNHGWQLEPALSRYFDGEWKGEPDQMGEPTQTSTPMAETLVPPALGPRPLLFTASLPVVRPLPANFRNDFRTIGLNGRSNTVWSMFESFSYDGNPFLFILLLIPRIINRLSATIFTFFCTLLSLHSISGGGNSGKPKISKVPKAPTRETHIPLAEILGDTKDKDAFCELKSFKPDISFNEALRIAKEEFKFMLLILVGDTYDTDTDTVDVNSKLLLEKILLNKKTLQYLRKIDNDLIIYLKCVHELEPWLVARQLGVRNTPEIFLIANVANKASHSETLPSQRLSILGKLKVNSLNRFLQSLTNVVEKYTPELVVNKTEMHELRMSREIKKLQEDAYKKSLEMDRIKAIEKEKSLKHAQDLKLNSTARQLKWLKACIDEIQPFETTGKQATLQFRTSSGKRFVKKFPSMTTLYQIYQSIGCHIYLAVYSSDPAEWSNALQDKIRQLSADDDMLCFKEGQLETATATTIEELGHIINNELTSFDLERGKLEFDFELVSPFPKYTVHPNEHMSVDQVPQLWPNGSLLVEALDEEDEEDEENEEQ

binding [3]: binds
B4: Sam35 (protein, UniProt P14693 1-329)
chain: MVSSFSVPMPVKRIFDTFPLQTYAAQTDKDEAVALEIQRRSYTFTERGGGSSELTVEGTYKLGVYNVFLEANTGAALATDPWCLFVQLALCQKNGLVLPTHSQEQTPSHTCNHEMLVLSRLSNPDEALPILVEGYKKRIIRSTVAISEIMRSRILDDAEQLMYYTLLDTVLYDCWITQIIFCASDAQFMELYSCQKLSGSIVTPLDVENSLLQKLSAKSLKISLTKRNKFQFRHREIVKSMQGVYHNHHNSVNQEQVLNVLFENSKQVLLGLKDMLKSDGQPTYLHLKIASYILCITNVKEPIKLKTFVENECKELVQFAQDTLKNFVQ

binding [4]: binds
B5: Om14 (protein, UniProt P38325 1-134)
chain: MSATAKHDSNASPNSDSEDGHHHNNKKECAIEYLKARLNSASAVACGYLQAFVSKTQDFAKVCFLELQNPVVLVNLLLHSSVVCYLCNGYANHNARFLKGKPNSTVLATTAGALGLLTLDGIISKKYYSRYDKK

binding (Ubx2–HA (S. cerevisiae)): binds
binding (Tom40–HA (S. cerevisiae)): binds
B6: peptidyl-tRNA hydrolase Pth2 (protein, UniProt P34222 1-208)
chain: MEKMTVSSNYTIALWATFTAISFAVGYQLGTSNASSTKKSSATLLRSKEMKEGKLHNDTDEEESESEDESDEDEDIESTSLNDIPGEVRMALVIRQDLGMTKGKIAAQCCHAALSCFRHIATNPARASYNPIMTQRWLNAGQAKITLKCPDKFTMDELYAKAISLGVNAAVIHDAGRTQIAAGSATVLGLGPAPKAVLDQITGDLKLY

binding (Cox4His (S. cerevisiae)): binds
B7: Shy1 (protein, UniProt P53266 1-389)
chain: MSLLGARSTYRWFSIAASIPTKNAIGKSTYLLASRNQQYRGIITSTVDWKPIKTGKSPNDDSRRERSFGKKIVLGLMFAMPIISFYLGTWQVRRLKWKTKLIAACETKLTYEPIPLPKSFTPDMCEDWEYRKVILTGHFLHNEEMFVGPRKKNGEKGYFLFTPFIRDDTGEKVLIERGWISEEKVAPDSRNLHHLSLPQEEHLKVVCLVRPPKKRGSLQWAKKDPNSRLWQVPDIYDMARSSGCTPIQFQALYDMKDHPIIEEHTRNEASQNNSTSSLWKFWKREPTTAVNGTQAVDNNTSKPRSRQEMPTDQTIEFDERQFIKAGVPIGRKPTIDLKNNHLQYLVTWYGLSFLSTIFLIVALRKAKRGGVVSQDQLMKEKLKHSRKYM
